Laboratory results published in patent publication US20050255491A1, “Small molecule and peptide arrays and uses thereof” (priority 2003, published 2005).
For some of these results: At least one structure is not confirmed: it was looked up by name or label, or the drawing left a doubt. Some results were stated once for a whole list of compounds, not compound by compound.

What was measured:
[1] = test system: obese (NZO×NON)F1 male mice; conditions: dietary supplementation, 200 mg/kg diet; cited from earlier work
[2] = test system: antibody P1 (specific for PSA-derived PET EPAELTDA); test: Peptide competition assay, antibody P1; assay type: binding; conditions: nearest-neighbor 8-mer competitor peptides, read-out: half-maximum effective peptide concentration (completely ineffective even at)
Experimental: (§1) In certain embodiments of the invention, a peptide competition assay may be used to determine the binding specificity of a capture agent towards its target PET, as compared to several nearest neighbor sequences of the PET. The same protocol can be adapted for small molecule-based competition assay
(§2) For a typical peptide competition assay, the following illustrative protocol may be used: 1 μg/100 μl/well of each target peptide is coated in Maxisorb Plates with coating buffer (carbonate buffer, pH 9.6) overnight at 4° C., or 1 hour at room temperature. The plates are washed with 300 μl of PBST (1×PBS/0.05% Tween 20) for 4 times. Then 300 μl of blocking buffer (2% BSA/PBST) is added and the plates are incubated for 1 hour at room temperature. Following blocking, the plates are washed with 300 μl of PBST for 4 times.
Synthesized competition peptides are dissolved in water to a final concentration of 2 mM solution. Serial dilution of competition peptides (for example, from 100 pM to 100 μM) in digested human serum are prepared. These competition peptides at particular concentrations are then mixed with equal amounts of primary antibodies against the target peptide. These mixtures are then added to plate wells with immobilized target peptides respectively. Binding is allowed to proceed for 2 hours at room temperature. […] Add 100 μl of stop buffer (2N HCL) and read the plates at OD450. […]

[3] = test system: antibody C1 (specific for CRP-derived PET YEVQGEVF); test: Peptide competition assay, antibody C1; assay type: binding; conditions: for IC50: competitor peptide against immobilized PET, neighbors completely ineffective even at the stated concentration, read-out: half-maximum effective peptide concentration; for fold higher concentration at which nearest neighbor is still ineffective: relative to antigen PET YEVQGEVF
Experimental: as §1, §2
Synthesized competition peptides are dissolved in water to a final concentration of 2 mM solution. Serial dilution of competition peptides (for example, from 100 pM to 100 μM) in digested human serum are prepared. These competition peptides at particular concentrations are then mixed with equal amounts of primary antibodies against the target peptide. These mixtures are then added to plate wells with immobilized target peptides respectively. Binding is allowed to proceed for 2 hours at room temperature. The plates are washed with 300 μl of PBST for 4 times. Then labeled secondary antibody against the primary antibody, such as 100 μl of 5,000× diluted anti-rabbit-IgG-HRP, is added and incubated for 1 more hour at room temperature. The plates are washed with 300 μl of PBST for 6 times. For detection of the HRP label activity, add 100 μl of TMB substrate (for HRP) and incubate for 15 minutes at room temperature. Add 100 μl of stop buffer (2N HCL) and read the plates at OD450. A peptide competition curve is plotted using the ABS at OD450 versus the competitor peptide concentrations.
However, two of its nearest-neighbor 8-mer PETs found in the human proteome with only two- or three-amino-acid differences, EPVELTSA (SEQ ID NO: 25) and DPTQLTDA (SEQ ID NO: 26), are completely ineffective even at 1000 μM (25,000-fold higher concentration). […] However, two of its nearest-neighbor 8-mer PETs found in the human proteome with only two-amino-acid differences, VEVNGEVF (SEQ ID NO: 27) and YEVLGEEF (SEQ ID NO: 28), are completely ineffective even at 1000 μM (at least 1,000-fold higher concentration).

CN(CCOc1ccc(CC2SC(=O)NC2=O)cc1)c1ccccn1 (stereo not shown) [rosiglitazone]
effect on Type 2 diabetes [1]: suppressed

DPTQLTDA [nearest-neighbor 8-mer of EPAELTDA found in the human proteome]
IC50 [2]: > 1000 µM

EPVELTSA [nearest-neighbor 8-mer of EPAELTDA found in the human proteome]
IC50 [2]: > 1000 µM

VEVNGEVF [nearest-neighbor 8-mer of YEVQGEVF found in the human proteome]
IC50 [3]: > 1000 µM | fold higher concentration at which nearest neighbor is still ineffective [3]: at least 1,000 fold

YEVLGEEF [nearest-neighbor 8-mer of YEVQGEVF found in the human proteome]
IC50 [3]: > 1000 µM | fold higher concentration at which nearest neighbor is still ineffective [3]: at least 1,000 fold
